In patent US20080287430A1, “Furan Compounds Useful As Ep1 Receptor Antagonists” (priority 2005, published 2008):
Where a name gives a salt, the structure may show the parent alone. Some of these results come from one statement about several compounds together.

Molecular target: T1, human EP3 receptor (Homo sapiens, UniProt P43115)
T1 construct: expressed in transfected cells; host or cells: CHO-K1
T1 sequence (P43115 1-390): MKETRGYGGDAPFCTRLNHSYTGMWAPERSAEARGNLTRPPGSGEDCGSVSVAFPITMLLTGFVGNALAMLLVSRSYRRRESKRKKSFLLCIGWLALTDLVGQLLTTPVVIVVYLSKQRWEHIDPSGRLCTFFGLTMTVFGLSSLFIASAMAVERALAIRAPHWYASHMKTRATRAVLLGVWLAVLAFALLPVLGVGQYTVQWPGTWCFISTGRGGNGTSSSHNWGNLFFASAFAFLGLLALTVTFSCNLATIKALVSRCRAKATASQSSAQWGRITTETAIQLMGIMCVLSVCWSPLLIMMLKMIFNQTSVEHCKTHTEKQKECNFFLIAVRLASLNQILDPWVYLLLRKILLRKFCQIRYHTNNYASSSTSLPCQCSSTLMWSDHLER
Assay: human EP3 calcium mobilisation assay
Format: cell-based
Conditions: human EP3, PGE2-induced calcium mobilisation in CHO-K1 cells; free bases or sodium salts; averages of a number of experiments

SMILES | functional pKi value
O=C(Nc1c(F)cccc1F)c1ccc(Cc2cc(Cl)ccc2OCc2c(F)cc(F)cc2F)o1 [Example 83, 5-[(5-Chloro-2-{[(2,4,6-trifluorophenyl)methyl]oxy}-phenyl)methyl]-N-(2,6-difluorophenyl)-2-furancarboxamide] | ≤ 6.5
O=C(Nc1c(F)cccc1F)c1ccc(Cc2cc(Cl)ccc2OCc2ccc(Cl)cc2F)o1 [Example 84, 5-[(5-Chloro-2-{[(4-chloro-2-fluorophenyl)methyl]oxy}-phenyl)methyl]-N-(2,6-difluorophenyl)-2-furancarboxamide] | ≤ 6.5
O=C(Nc1c(F)cccc1F)c1ccc(Cc2cc(Cl)ccc2OCc2c(F)cccc2F)o1 [Example 85, 5-[(5-Chloro-2-{[(2,6-difluorophenyl)methyl]oxy}-phenyl)methyl]-N-(2,6-difluorophenyl)-2-furancarboxamide] | ≤ 6.5
O=C(Nc1c(F)cccc1F)c1ccc(Cc2cc(Cl)ccc2OCc2ccc(F)c(F)c2)o1 [Example 86, 5-[(5-Chloro-2-{[(3,4-difluorophenyl)methyl]oxy}-phenyl)methyl]-N-(2,6-difluorophenyl)-2-furancarboxamide] | ≤ 6.5
O=C(Nc1c(F)cccc1F)c1ccc(Cc2cc(Cl)ccc2OCc2cccc(F)c2F)o1 [Example 87, 5-[(5-Chloro-2-{[(2,3-difluorophenyl)methyl]oxy}-phenyl)methyl]-N-(2,6-difluorophenyl)-2-furancarboxamide] | ≤ 6.5
O=C(Nc1c(F)cccc1F)c1ccc(Cc2cc(Cl)ccc2OCc2cc(F)c(F)cc2F)o1 [Example 88, 5-[(5-Chloro-2-{[(2,4,5-trifluorophenyl)methyl]oxy}-phenyl)methyl]-N-(2,6-difluorophenyl)-2-furancarboxamide] | ≤ 6.5
O=C(Nc1c(F)cccc1F)c1ccc(Cc2cc(Cl)ccc2OCc2ccc(Cl)cc2Cl)o1 [Example 89, 5-[(5-Chloro-2-{[(2,4-dichlorophenyl)methyl]-oxy}phenyl)methyl]-N-(2,6-difluorophenyl)-2-furancarboxamide] | ≤ 6.5
O=C(Nc1c(F)cccc1F)c1ccc(Cc2cc(Cl)ccc2OCc2ccc(Cl)cc2)o1 [Example 90, 5-[(5-Chloro-2-{[(4-chlorophenyl)methyl]oxy}-phenyl)methyl]-N-(2,6-difluorophenyl)-2-furancarboxamide] | ≤ 6.5
O=C(Nc1c(F)cccc1F)c1ccc(Cc2cc(Cl)ccc2OCc2ccccn2)o1 [Example 91, 5-({5-Chloro-2-[(2-pyridinylmethyl)oxy]phenyl}methyl)-N-(2,6-difluorophenyl)-2-furancarboxamide] | ≤ 6.5
O=C(Nc1c(F)cccc1F)c1ccc(Cc2cc(Cl)ccc2OCc2cccnc2)o1 [Example 92, 5-({5-Chloro-2-[(3-pyridinylmethyl)oxy]phenyl}methyl)-N-(2,6-difluorophenyl)-2-furancarboxamide] | ≤ 6.5
CCCOc1ccc(Cl)cc1Cc1ccc(C(=O)Nc2c(F)cccc2F)o1 [Example 93, 5-{[5-Chloro-2-(propyloxy)phenyl]methyl}-N-(2,6-difluorophenyl)-2-furancarboxamide] | ≤ 6.5
O=C(Nc1c(F)cccc1F)c1ccc(Cc2cc(Cl)ccc2OCC2CC2)o1 [Example 94, 5-({5-Chloro-2-[(cyclopropylmethyl)oxy]-phenyl}methyl)-N-(2,6-difluorophenyl)-2-furancarboxamide] | ≤ 6.5
O=C(Nc1c(F)cccc1F)c1ccc(Cc2cc(Cl)ccc2OC2CCCC2)o1 [Example 95, 5-{[5-Chloro-2-(cyclopentyloxy)phenyl]-methyl}-N-(2,6-difluorophenyl)-2-furancarboxamide] | ≤ 6.5
O=C(Nc1c(F)cccc1F)c1ccc(Cc2cc(Cl)ccc2OCC2CCCCC2)o1 [Example 96, 5-({5-Chloro-2-[(cyclohexylmethyl)oxy]-phenyl}methyl)-N-(2,6-difluorophenyl)-2-furancarboxamide] | ≤ 6.5
CCC(CC)COc1ccc(Cl)cc1Cc1ccc(C(=O)Nc2c(F)cccc2F)o1 [Example 97, 5-({5-Chloro-2-[(2-ethylbutyl)oxy]phenyl}meth-yl)-N-(2,6-difluorophenyl)-2-furancarboxamide] | ≤ 6.5
CC(C)COc1ccc(Cl)cc1Cc1ccc(-c2nc3nccnc3[nH]2)o1 [Example 106, 2-[5-({5-Chloro-2-[(2-methylpropyl)oxy]-phenyl}methyl)-2-furanyl]-1H-imidazo[4,5-b]pyrazine] | ≤ 6.5

Further lines, results first:

functional pKi value | SMILES
≤ 6.5 | O=C(Nc1c(F)cccc1F)c1ccc(Cc2cc(Cl)ccc2OCc2ccccc2F)o1 [Example 81, 5-[(5-Chloro-2-{[(2-fluorophenyl)methyl]oxy}phenyl)methyl]-N-(2,6-difluorophenyl)-2-furancarboxamide]
≤ 6.5 | O=C(Nc1c(F)cccc1F)c1ccc(Cc2cc(Cl)ccc2OCc2ccc(F)cc2)o1 [Example 82, 5-[(5-Chloro-2-{[(4-fluorophenyl)methyl]oxy}-phenyl)methyl]-N-(2,6-difluorophenyl)-2-furancarboxamide]
≤ 6.5 | CC(C)COc1ccc(Cl)cc1Cc1ccc(-c2nc3ccccc3[nH]2)o1 [Example 98, 2-[5-({5-Chloro-2-[(2-methylpropyl)oxy]phenyl}methyl)-2-furanyl]-1H-benzimidazole]
≤ 6.5 | Clc1ccc(OCc2ccccc2)c(Cc2ccc(-c3nc4ccccc4[nH]3)o2)c1 [Example 99, 2-[5-({5-Chloro-2-[(phenylmethyl)oxy]phenyl}methyl)-2-furanyl]-1H-benzimidazole]
≤ 6.5 | COc1ccc2[nH]c(-c3ccc(Cc4cc(Cl)ccc4OCc4ccccc4)o3)nc2c1 [Example 100, 2-[5-({5-Chloro-2-[(phenylmethyl)oxy]phenyl}methyl)-2-furanyl]-5-(methyloxy)-1H-benzimidazole]
≤ 6.5 | Clc1ccc(OCc2ccccc2)c(Cc2ccc(-c3nc4cscc4[nH]3)o2)c1 [Example 101, 2-[5-({5-Chloro-2-[(phenylmethyl)oxy]phenyl}methyl)-2-furanyl]-1H-thieno[3,4-d]imidazole]
≤ 6.5 | Clc1ccc(OCc2ccccc2)c(Cc2ccc(-c3nc4nccnc4[nH]3)o2)c1 [Example 102, 2-[5-({5-Chloro-2-[(phenylmethyl)oxy]phenyl}methyl)-2-furanyl]-1H-imidazo[4,5-b]pyrazine]
≤ 6.5 | CN1CCN(c2ccc3nc(-c4ccc(Cc5cc(Cl)ccc5OCc5ccccc5)o4)[nH]c3c2)CC1.Cl [Example 103, 2-[5-({5-Chloro-2-[(phenylmethyl)oxy]phenyl}methyl)-2-furanyl]-5-(4-methyl-1-piperazinyl)-1H-benzimidazolehydrochloride]
≤ 6.5 | COc1nccc2[nH]c(-c3ccc(Cc4cc(Cl)ccc4OCC(C)C)o3)nc12 [Example 104, 2-[5-({5-Chloro-2-[(2-methylpropyl)oxy]-phenyl}methyl)-2-furanyl]-4-(methyloxy)-1H-imidazo[4,5-c]pyridine]
≤ 6.5 | COc1ccc2[nH]c(-c3ccc(Cc4cc(Cl)ccc4OCC(C)C)o3)nc2c1 [Example 105, 2-[5-({5-Chloro-2-[(2-methylpropyl)oxy]-phenyl}methyl)-2-furanyl]-5-(methyloxy)-1H-benzimidazole]
≤ 6.5 | CC(C)COc1ccc(Cl)cc1Cc1ccc(-c2nc3cc4cnn(C)c4cc3[nH]2)o1 [Example 107, 6-[5-({5-Chloro-2-[(2-methylpropyl)oxy]-phenyl}methyl)-2-furanyl]-1-methyl-1,5-dihydroimidazo[4,5-f]indazole]
≤ 6.5 | CC(C)COc1ccc(Cl)cc1Cc1ccc(-c2nc3c(F)cccc3[nH]2)o1 [Example 108, 2-[5-({5-Chloro-2-[(2-methylpropyl)oxy]-phenyl}methyl)-2-furanyl]-4-fluoro-1H-benzimidazole]
≤ 6.5 | CC(C)COc1ccc(Cl)cc1Cc1ccc(-c2nc3cscc3[nH]2)o1 [Example 109, 2-[5-({5-Chloro-2-[(2-methylpropyl)oxy]-phenyl}methyl)-2-furanyl]-1H-thieno[3,4-d]imidazole]
≤ 6.5 | CC(C)COc1ccc(Cl)cc1Cc1ccc(-c2nc3ccc(Br)cc3[nH]2)o1.Cl [Example 110, 5-Bromo-2-[5-({5-chloro-2-[(2-methylpropyl)oxy]-phenyl}methyl)-2-furanyl]-1H-benzimidazolehydrochloride]
≤ 6.5 | CC(C)COc1ccc(Cl)cc1Cc1ccc(-c2nc3ccc(N4CCN(C)CC4)cc3[nH]2)o1 [Example 111, 2-[5-({5-Chloro-2-[(2-methylpropyl)oxy]-phenyl}methyl)-2-furanyl]-5-(4-methyl-1-piperazinyl)-1H-benzimidazoletrihydrochloride]
≤ 6.5 | CC(C)COc1ccc(Cl)cc1Cc1ccc(-c2nc3ccc(N4CCOCC4)cc3[nH]2)o1 [Example 112, 2-[5-({5-Chloro-2-[(2-methylpropyl)oxy]-phenyl}methyl)-2-furanyl]-5-(4-morpholinyl)-1H-benzimidazoledihydrochloride]

Same assay, conditions: human EP3 calcium mobilisation assay; free bases or sodium salts

SMILES | activity in a functional assay
O=C(Nc1c(F)cccc1F)c1ccc(Cc2cc(Cl)ccc2OCc2cc(F)c(F)cc2F)o1 [Example 88, 5-[(5-Chloro-2-{[(2,4,5-trifluorophenyl)methyl]oxy}-phenyl)methyl]-N-(2,6-difluorophenyl)-2-furancarboxamide] | no activity
O=C(Nc1c(F)cccc1F)c1ccc(Cc2cc(Cl)ccc2OCc2ccc(Cl)cc2Cl)o1 [Example 89, 5-[(5-Chloro-2-{[(2,4-dichlorophenyl)methyl]-oxy}phenyl)methyl]-N-(2,6-difluorophenyl)-2-furancarboxamide] | no activity
O=C(Nc1c(F)cccc1F)c1ccc(Cc2cc(Cl)ccc2OCC2CCCCC2)o1 [Example 96, 5-({5-Chloro-2-[(cyclohexylmethyl)oxy]-phenyl}methyl)-N-(2,6-difluorophenyl)-2-furancarboxamide] | no activity

Now from value to compound:

activity in a functional assay | SMILES
no activity | CC(C)COc1ccc(Cl)cc1Cc1ccc(-c2nc3ccc(Br)cc3[nH]2)o1.Cl [Example 110, 5-Bromo-2-[5-({5-chloro-2-[(2-methylpropyl)oxy]-phenyl}methyl)-2-furanyl]-1H-benzimidazolehydrochloride]
no activity | CC(C)COc1ccc(Cl)cc1Cc1ccc(-c2nc3ccc(N4CCN(C)CC4)cc3[nH]2)o1 [Example 111, 2-[5-({5-Chloro-2-[(2-methylpropyl)oxy]-phenyl}methyl)-2-furanyl]-5-(4-methyl-1-piperazinyl)-1H-benzimidazoletrihydrochloride]
